This is one part of the list.

Sequences of proteins named here, by UniProt entry; tags and fusion partners are left off. A change or cut given only in a name is not applied to a line headed by its entry.
UniProt Q00688: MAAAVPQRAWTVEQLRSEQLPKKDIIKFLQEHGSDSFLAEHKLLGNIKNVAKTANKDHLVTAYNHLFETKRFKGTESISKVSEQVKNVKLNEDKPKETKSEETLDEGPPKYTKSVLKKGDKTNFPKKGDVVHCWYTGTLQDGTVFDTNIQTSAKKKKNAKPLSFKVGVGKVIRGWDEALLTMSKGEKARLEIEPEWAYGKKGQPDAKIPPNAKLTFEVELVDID
UniProt Q96FL9: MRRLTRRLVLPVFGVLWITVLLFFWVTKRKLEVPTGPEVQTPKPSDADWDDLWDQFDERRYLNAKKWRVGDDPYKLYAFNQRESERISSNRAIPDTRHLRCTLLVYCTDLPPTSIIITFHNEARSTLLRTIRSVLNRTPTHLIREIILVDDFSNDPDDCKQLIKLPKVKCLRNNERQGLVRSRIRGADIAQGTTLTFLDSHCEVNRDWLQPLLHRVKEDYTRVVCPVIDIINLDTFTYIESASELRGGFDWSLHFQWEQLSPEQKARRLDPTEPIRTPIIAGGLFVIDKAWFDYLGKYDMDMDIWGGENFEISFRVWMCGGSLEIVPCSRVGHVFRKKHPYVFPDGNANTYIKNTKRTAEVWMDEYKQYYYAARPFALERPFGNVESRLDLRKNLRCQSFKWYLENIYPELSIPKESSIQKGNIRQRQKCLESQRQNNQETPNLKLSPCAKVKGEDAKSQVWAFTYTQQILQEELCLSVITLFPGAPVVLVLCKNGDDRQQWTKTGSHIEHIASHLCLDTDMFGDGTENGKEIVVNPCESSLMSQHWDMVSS
UniProt Q96A26: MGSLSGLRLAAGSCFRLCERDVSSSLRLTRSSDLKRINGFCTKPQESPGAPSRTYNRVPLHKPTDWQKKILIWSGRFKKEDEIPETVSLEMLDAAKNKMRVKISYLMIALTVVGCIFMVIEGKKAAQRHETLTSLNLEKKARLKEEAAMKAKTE
UniProt P51114, whole entry: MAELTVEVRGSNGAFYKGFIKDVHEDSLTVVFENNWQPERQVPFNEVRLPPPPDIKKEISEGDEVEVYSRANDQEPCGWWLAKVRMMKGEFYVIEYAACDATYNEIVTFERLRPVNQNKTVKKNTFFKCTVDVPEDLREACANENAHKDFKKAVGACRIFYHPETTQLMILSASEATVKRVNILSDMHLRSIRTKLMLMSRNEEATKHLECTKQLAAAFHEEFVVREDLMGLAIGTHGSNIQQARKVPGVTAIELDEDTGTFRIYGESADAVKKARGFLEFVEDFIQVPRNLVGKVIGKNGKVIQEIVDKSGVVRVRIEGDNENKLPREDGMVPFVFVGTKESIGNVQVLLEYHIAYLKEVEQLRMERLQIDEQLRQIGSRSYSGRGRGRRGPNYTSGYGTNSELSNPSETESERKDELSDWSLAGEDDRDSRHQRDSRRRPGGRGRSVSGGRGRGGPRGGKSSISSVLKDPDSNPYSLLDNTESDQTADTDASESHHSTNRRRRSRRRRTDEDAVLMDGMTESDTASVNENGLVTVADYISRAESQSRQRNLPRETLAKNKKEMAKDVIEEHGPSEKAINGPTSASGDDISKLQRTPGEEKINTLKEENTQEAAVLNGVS
UniProt Q9H6L5: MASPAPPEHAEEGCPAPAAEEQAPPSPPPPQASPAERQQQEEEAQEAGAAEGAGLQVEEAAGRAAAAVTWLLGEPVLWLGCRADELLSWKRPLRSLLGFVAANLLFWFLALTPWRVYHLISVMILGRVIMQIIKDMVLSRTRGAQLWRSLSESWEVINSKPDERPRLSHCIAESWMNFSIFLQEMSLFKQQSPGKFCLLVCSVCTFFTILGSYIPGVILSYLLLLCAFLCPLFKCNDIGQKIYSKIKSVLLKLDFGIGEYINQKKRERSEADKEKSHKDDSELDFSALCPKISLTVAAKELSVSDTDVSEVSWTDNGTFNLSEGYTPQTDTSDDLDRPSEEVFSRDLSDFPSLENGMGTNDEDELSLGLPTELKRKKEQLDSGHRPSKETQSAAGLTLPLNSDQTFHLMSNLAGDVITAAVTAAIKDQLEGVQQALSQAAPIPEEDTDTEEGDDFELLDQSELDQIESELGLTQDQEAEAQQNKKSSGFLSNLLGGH
UniProt Q96TC7: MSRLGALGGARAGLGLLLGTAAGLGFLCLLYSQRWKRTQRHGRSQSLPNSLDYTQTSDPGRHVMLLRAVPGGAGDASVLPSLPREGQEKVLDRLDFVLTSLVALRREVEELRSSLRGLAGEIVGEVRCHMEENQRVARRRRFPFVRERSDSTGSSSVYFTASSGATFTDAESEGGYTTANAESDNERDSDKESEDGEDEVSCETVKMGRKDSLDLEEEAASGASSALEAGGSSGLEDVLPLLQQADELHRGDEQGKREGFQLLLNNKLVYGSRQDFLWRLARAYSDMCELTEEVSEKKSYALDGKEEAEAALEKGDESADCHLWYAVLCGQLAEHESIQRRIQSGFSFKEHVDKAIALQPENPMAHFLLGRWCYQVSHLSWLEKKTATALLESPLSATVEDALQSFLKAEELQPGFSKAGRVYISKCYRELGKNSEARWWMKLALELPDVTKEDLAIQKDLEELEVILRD
UniProt Q8NCL4: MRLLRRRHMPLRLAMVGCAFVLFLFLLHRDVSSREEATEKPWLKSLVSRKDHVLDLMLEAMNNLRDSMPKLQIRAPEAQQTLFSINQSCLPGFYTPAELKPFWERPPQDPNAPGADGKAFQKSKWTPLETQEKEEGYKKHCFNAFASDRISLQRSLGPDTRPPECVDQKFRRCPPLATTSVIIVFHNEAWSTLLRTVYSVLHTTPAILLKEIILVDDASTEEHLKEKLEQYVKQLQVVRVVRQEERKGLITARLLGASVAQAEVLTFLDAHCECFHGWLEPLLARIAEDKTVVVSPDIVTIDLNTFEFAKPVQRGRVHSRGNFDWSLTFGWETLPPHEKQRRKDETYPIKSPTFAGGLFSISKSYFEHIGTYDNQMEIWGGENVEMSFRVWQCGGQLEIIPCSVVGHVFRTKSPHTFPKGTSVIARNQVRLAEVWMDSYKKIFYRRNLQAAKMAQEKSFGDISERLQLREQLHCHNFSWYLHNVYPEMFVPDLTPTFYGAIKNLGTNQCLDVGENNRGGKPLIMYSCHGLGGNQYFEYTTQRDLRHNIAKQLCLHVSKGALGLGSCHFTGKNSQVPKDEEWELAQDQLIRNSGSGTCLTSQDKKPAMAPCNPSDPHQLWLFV
UniProt Q9UIM3: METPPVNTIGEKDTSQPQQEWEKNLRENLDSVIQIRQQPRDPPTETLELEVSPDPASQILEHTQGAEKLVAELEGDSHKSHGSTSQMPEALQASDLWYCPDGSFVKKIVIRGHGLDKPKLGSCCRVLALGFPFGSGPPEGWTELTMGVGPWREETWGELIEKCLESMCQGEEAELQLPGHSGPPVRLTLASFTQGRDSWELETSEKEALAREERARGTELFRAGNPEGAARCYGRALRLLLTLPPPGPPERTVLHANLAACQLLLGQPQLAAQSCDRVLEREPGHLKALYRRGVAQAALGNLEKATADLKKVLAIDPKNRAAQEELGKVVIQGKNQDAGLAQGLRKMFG
UniProt Q9NYY8: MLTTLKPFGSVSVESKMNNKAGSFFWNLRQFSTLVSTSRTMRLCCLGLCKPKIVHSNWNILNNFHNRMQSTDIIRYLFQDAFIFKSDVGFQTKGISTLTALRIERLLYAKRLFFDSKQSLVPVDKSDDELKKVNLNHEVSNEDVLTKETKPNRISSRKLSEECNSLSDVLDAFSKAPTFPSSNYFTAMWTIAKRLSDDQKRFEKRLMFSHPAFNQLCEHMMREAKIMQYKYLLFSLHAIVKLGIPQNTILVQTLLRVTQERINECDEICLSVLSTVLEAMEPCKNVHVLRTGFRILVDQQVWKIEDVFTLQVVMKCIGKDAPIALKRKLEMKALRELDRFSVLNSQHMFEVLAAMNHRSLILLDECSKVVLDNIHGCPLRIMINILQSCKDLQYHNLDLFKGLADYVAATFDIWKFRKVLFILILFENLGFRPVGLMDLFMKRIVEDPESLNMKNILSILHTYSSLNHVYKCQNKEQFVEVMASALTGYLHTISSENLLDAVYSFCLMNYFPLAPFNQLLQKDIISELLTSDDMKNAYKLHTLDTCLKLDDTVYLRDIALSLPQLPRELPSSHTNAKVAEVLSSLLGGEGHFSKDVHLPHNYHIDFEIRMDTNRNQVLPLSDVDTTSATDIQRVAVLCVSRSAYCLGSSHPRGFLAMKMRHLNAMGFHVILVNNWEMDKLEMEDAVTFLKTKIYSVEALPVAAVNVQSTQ
UniProt O15117, whole entry: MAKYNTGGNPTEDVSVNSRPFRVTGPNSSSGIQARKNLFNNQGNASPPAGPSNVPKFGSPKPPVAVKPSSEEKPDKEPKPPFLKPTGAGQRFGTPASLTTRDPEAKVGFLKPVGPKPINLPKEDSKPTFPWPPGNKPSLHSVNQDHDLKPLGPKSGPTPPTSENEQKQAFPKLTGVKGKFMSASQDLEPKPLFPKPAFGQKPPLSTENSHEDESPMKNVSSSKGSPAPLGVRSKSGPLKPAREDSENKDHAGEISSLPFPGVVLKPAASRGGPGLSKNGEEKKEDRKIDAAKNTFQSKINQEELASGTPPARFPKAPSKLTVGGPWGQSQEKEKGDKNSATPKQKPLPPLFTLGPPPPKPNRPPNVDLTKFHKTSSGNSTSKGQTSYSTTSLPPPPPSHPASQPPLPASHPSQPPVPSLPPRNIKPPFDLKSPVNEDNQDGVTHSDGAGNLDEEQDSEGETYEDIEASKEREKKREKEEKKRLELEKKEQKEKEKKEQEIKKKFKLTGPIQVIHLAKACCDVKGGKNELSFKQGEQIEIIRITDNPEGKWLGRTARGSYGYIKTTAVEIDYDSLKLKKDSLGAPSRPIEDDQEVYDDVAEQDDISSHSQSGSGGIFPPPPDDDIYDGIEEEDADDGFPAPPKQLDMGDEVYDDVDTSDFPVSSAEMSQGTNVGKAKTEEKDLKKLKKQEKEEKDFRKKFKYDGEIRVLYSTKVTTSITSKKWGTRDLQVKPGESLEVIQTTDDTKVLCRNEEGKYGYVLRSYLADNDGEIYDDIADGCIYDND
UniProt O14772: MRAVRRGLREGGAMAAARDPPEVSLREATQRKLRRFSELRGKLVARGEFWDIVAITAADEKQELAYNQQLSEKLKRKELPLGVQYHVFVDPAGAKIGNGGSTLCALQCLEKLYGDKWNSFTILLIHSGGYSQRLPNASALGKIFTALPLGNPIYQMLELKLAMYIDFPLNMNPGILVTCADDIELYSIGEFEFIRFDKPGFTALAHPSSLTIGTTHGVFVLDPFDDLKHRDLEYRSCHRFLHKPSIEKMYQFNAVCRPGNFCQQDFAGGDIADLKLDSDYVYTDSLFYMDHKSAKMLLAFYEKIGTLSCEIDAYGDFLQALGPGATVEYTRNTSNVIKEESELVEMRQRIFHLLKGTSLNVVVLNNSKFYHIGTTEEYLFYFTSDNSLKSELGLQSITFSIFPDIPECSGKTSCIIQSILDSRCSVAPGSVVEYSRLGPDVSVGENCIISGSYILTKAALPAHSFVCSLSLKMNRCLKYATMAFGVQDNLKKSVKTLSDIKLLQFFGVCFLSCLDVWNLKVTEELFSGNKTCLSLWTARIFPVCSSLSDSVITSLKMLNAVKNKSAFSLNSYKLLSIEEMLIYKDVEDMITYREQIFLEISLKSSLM
UniProt Q5RI15: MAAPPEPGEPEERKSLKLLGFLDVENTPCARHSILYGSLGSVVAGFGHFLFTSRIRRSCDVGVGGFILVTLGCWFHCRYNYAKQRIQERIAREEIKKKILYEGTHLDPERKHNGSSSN
UniProt Q8WVK7: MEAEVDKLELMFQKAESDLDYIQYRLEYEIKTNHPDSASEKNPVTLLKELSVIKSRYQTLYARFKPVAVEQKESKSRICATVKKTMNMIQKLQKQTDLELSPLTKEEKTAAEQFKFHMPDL
UniProt P10109: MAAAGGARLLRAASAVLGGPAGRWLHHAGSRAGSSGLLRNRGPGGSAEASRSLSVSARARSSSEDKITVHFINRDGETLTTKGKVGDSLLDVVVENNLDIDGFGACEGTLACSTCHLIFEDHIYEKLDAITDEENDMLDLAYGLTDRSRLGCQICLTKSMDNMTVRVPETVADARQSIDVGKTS
UniProt Q9NUQ9: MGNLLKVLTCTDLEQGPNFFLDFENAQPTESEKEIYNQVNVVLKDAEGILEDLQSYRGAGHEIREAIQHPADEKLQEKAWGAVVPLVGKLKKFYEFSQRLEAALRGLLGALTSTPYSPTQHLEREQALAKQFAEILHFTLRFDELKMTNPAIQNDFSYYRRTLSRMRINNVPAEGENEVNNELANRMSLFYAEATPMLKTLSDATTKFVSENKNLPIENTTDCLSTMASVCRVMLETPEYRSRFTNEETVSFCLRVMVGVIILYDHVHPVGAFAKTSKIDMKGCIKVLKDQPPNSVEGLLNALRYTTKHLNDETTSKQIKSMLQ
UniProt Q6P4H8: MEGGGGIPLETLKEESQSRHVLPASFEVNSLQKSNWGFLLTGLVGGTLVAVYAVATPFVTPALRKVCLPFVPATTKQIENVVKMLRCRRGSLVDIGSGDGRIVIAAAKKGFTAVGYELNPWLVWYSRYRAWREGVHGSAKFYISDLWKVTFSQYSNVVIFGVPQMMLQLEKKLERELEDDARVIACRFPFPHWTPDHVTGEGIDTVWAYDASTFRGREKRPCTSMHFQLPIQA

The results in this text go back to the supplement of paper PMC7666118.

Compound in the assay: COc1ccc(Cn2ccc3ccc(C(=O)NO)cc32)cc1
Put plainly: dose-dependent thermal stabilisation call (2D-TPP, DLPTP, 10% FDR) (binary (1 = stabilised)); higher = stabilised by the compound. The conditions noted are these: system: HL-60 intact cells; concentration range 0.04-10 µM.
Regarding FKBP3 (UniProt Q00688), the “dose-dependent thermal stabilisation call” value is inactive: 0.
With G3BP2 (UniProt Q9UN86) the figure was inactive: 0; with GALNT14 (UniProt Q96FL9), inactive: 0.
Next, FAM54A (UniProt Q6P444): inactive: 0.
Next, FLJ11506: inactive: 0; FBN2 (UniProt P35556): inactive: 0; FAM162A (UniProt Q96A26): inactive: 0.
As to FBRS (UniProt Q9HAH7), the “dose-dependent thermal stabilisation call” value is inactive: 0.
Consider FXR1 (UniProt P51114), for which the “dose-dependent thermal stabilisation call” value was inactive: 0.
With FAM134B (UniProt Q9H6L5) the figure was inactive: 0; with FAM82A2 (UniProt Q96TC7), inactive: 0; with GATC (UniProt O43716), inactive: 0.
Next, FAM107B (UniProt Q9H098): inactive: 0; GALNT6 (UniProt Q8NCL4): inactive: 0; FKBPL (UniProt Q9UIM3): inactive: 0.
For the target FASTKD2 (UniProt Q9NYY8), the “dose-dependent thermal stabilisation call” value was inactive: 0.
Next, FYB (UniProt O15117): inactive: 0.
Next, FPGT (UniProt O14772): inactive: 0; FAM36A (UniProt Q5RI15): inactive: 0.
For the target FOXK1 (UniProt P85037), the “dose-dependent thermal stabilisation call” value was inactive: 0.
With FAM114A2 (UniProt Q9NRY5) the figure was inactive: 0.
With FKBP5 (UniProt Q13451) the figure was inactive: 0; with FAM33A (UniProt Q8WVK7), inactive: 0; with FDX1 (UniProt P10109), inactive: 0.
Next, FAM49B (UniProt Q9NUQ9): inactive: 0; FKBP2 (UniProt P26885): inactive: 0.
With FAM173B (UniProt Q6P4H8), the “dose-dependent thermal stabilisation call” value is inactive: 0.
